The exact form of at least one protein or probe is not confirmed. At least one result comes from cells or an extract, where the contact may be indirect.
Target: Sp1 (UniProt O89090)
Assay: EMSA
Settings: 30A5 nuclear extract, bands 1 and 2 of four; EMSA: 10 ug nuclear protein, 10 mM HEPES pH 7.9, 50 mM KCl, 5 mM MgCl2, 5 mM DTT, 1 mM EDTA, 10% glycerol, 1 ug poly(dI.dC), 20 ul, on ice 30 min, 4% PAGE; protein in an extract; label: 32P 5' end label, both strands

By UniProt entry, the sequences of proteins in these tests, tags left out.
UniProt O89090, whole entry: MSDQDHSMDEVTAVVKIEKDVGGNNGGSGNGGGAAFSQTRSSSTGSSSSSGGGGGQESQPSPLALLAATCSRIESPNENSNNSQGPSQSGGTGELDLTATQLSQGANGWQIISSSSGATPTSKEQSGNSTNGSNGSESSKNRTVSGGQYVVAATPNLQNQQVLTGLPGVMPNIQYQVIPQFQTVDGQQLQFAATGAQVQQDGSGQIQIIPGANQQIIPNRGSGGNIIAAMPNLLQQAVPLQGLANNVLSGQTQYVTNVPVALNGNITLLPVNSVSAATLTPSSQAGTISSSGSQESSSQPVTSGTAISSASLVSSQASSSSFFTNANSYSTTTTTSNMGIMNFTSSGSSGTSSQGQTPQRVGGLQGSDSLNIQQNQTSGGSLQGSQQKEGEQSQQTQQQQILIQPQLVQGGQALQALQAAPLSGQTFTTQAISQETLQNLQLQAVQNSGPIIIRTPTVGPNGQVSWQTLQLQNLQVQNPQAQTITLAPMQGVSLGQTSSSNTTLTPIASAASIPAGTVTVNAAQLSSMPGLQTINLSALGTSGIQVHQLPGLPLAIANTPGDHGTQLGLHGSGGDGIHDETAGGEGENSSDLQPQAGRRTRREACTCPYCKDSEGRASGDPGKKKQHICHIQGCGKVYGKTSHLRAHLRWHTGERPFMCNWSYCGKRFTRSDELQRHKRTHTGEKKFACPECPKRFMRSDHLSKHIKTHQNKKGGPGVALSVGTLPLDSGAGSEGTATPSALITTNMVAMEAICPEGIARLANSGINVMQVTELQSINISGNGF

“GGTGAGCCGTTGGGCTGGCCCAAACCGCCC (double strand) [ACC promoter II -389/-359 30-mer (TNF responsive element)]”: binds.

From publication PMC2365413
